# Primary screen of a compound library

The chains behind the UniProt entries cited, without tags or fusion partners. Residues count along the entry.
UniProt P9WPC5, whole entry: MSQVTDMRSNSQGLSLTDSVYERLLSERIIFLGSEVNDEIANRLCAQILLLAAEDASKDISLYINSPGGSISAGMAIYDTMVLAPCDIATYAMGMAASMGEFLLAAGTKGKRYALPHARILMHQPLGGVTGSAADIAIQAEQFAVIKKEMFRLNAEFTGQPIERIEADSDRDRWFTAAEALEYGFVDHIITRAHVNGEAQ
UniProt P9WPC3, whole entry partner: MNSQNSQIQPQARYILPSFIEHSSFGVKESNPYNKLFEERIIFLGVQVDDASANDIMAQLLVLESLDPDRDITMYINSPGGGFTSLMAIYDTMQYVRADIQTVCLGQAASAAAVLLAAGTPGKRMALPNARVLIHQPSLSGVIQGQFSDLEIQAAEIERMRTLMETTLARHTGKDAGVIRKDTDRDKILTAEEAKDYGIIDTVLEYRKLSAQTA
UniProt A4I591, 1-473: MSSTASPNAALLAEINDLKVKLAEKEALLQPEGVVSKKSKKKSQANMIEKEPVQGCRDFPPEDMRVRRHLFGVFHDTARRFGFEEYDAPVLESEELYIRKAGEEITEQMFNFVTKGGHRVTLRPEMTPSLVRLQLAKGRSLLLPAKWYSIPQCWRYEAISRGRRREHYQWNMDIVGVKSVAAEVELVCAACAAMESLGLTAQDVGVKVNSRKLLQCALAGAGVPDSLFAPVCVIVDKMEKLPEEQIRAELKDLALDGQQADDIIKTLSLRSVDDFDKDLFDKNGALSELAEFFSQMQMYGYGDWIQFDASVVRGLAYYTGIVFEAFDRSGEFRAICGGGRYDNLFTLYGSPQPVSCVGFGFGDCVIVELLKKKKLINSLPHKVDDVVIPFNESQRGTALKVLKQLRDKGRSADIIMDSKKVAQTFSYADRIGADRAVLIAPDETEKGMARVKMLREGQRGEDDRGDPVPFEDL

Each number is a percent effect as filed.
How 0% and 100% were set is not recorded. Most values in the screen are low, and negative values occur.
The compounds are a random part of those screened.

A: 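Protease assay of ClpP1P2, read by the AMC dye that it sets free. Target: ClpP1P2, Mycobacterium tuberculosis (UniProt P9WPC5 and UniProt P9WPC3). Compounds at 50 µM. Direction is inferred from only a few compounds that gave an IC50; most scored high, so higher reads as stronger inhibition. Most other retested compounds had strongly negative values. Of about 69,000 compounds tested this way, about 10 (0.015%) reached 50% or more in at least one test.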
B: 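Enzyme assay of histidyl-tRNA synthetase; the read-out is not stated. Target: Histidine-tRNA ligase, Leishmania infantum (UniProt A4I591). Concentration: 30 µM. The record gives no direction; compounds that gave an IC50 in retests scored well above the rest, so higher reads as stronger inhibition. The assay is labelled LdHisRS but filed under L. infantum. About 69,000 compounds were tested under these conditions; 0.6% (about 410) showed 50% or more at least once.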

{"smiles": "COc1cc(C2SCC(=O)Nc3ccsc32)cc(OC)c1OC", "stereo": "configuration not stated", "A": 8.189, "B": 11.67}
{"smiles": "Fc1cccc(CNc2cncc(-n3cccn3)n2)c1", "A": -50.33, "B": -26.67}
{"smiles": "CC(NC(=O)N(C)Cc1ccc2c(c1)OCO2)c1nncn1C", "stereo": "configuration not stated", "A": 2.274, "B": 18.18}
{"smiles": "CCc1ocnc1C(=O)N1CCCC1c1noc(C(C)C)n1", "stereo": "configuration not stated", "A": -28.79, "B": 14.68}
{"smiles": "CC(c1ccc(C(=O)NCCc2nc(N)cc(O)n2)o1)N1CCCCC1", "stereo": "configuration not stated", "A": 3.255, "B": 43.84}
{"smiles": "CC(C)CC1SCC(=O)Nc2c1cnn2C1CCCC1", "stereo": "configuration not stated", "A": -15.42, "B": 21.05}
{"smiles": "Cc1ccc(-c2nnc(CN3CCCC(Cn4cncn4)C3)o2)cc1", "stereo": "configuration not stated", "A": -20.42, "B": 15.74}
{"smiles": "CN(CC1CCN(CCO)CC1)CC(O)c1ccc(F)c(F)c1", "stereo": "configuration not stated", "A": 7.802, "B": 5.128}
{"smiles": "Cc1cc(C)c(C(=O)N(C)CCN(C)C(=O)OC(C)(C)C)[nH]1", "A": 2.343, "B": 5.181}
{"smiles": "O=C1CCC2(CCN(Cc3ccc(F)cc3)CC2)N1CCN1CCCC1", "A": -1.489, "B": 13.76}
{"smiles": "CCN(CC)CC[C@H]1CN(C(=O)C(C)(C)C)CC[C@H]1CC(=O)O", "A": -9.637, "B": 13.89}
{"smiles": "Cc1ccc(OCC(=O)Nc2cnccc2SCCCO)cc1C", "A": 7.029, "B": 3.175}
{"smiles": "CN(Cc1nc(Cc2cccc(F)c2)no1)C1CCOCC1", "A": -14.96, "B": 6.993}
{"smiles": "COC(=O)NC1(C(=O)Nc2ccc(-c3ncc[nH]3)cc2)CCCC1", "A": -4.986, "B": 15.25}
{"smiles": "CCc1noc(CNc2cc(F)ccc2OCC2CCCO2)n1", "stereo": "configuration not stated", "A": -22.83, "B": 1.923}
{"smiles": "CCc1ncc(CN2CCC3(CCCN(CC4CCC4)C3)C2)cn1", "stereo": "configuration not stated", "A": -7.548, "B": 14.29}
{"smiles": "CNC(=O)c1cn[nH]c1C1CCN(Cc2ccccc2F)C1", "stereo": "configuration not stated", "A": -9.367, "B": 3.448}
{"smiles": "CC(C)(O)CN1CCN(C(=O)c2ccc3c(c2)COC3)CC1", "A": -16.58, "B": 10.17}
{"smiles": "CCC(O)CN1CCN(C(=O)c2ccc(Cn3cccc3)cc2)CC1", "stereo": "configuration not stated", "A": -1.74, "B": 17.54}
{"smiles": "Cc1cc(C(=O)N2CCCC(c3cc(C(F)(F)F)[nH]n3)C2)[nH]n1", "stereo": "configuration not stated", "A": -15.75, "B": 5.455}
{"smiles": "Cc1ncc(CNc2ccc(C(=O)NCc3ccco3)cc2C)s1", "A": -10.66, "B": 4.762}
{"smiles": "O=C(CN1CCSCC1c1ccccc1)N1CCCC1", "stereo": "configuration not stated", "A": -16.56, "B": 27.4}
{"smiles": "Cc1ccc(C(=O)NCCS(=O)(=O)Cc2ccccc2)c(C)c1", "A": 3.365, "B": 2.74}
{"smiles": "COCC1CC2(CCN(C(=O)c3cnc4ccccc4c3)CC2)CO1", "stereo": "configuration not stated", "A": -18.4, "B": 1.754}
{"smiles": "O=C(NCc1cccnc1)[C@H]1C[C@@H]2CCN(c3ccncn3)C[C@H]2O1", "A": -9.921, "B": 15.28}
{"smiles": "COc1ccccc1CNC(=O)C(C)n1cc2c(n1)c(C)nn2C", "stereo": "configuration not stated", "A": 0.5137, "B": 15.52}
{"smiles": "CC(C)NS(=O)(=O)c1cc(C(=O)O)cc(-n2cc3c(n2)CCC3)c1", "A": -3.206, "B": 43.55}
{"smiles": "Cc1nnc(CN2CCN(C)C3(CCC(=O)N(CCO)CC3)C2)s1", "stereo": "configuration not stated", "A": -15.12, "B": -11.86}
{"smiles": "Cc1ncccc1C(=O)N1CCC2(CCc3ccccc3C(=O)N2)C1", "stereo": "configuration not stated", "A": -15.8, "B": 10.07}
{"smiles": "Cc1ncc(-c2ccncc2)c(C2CCN(C(=O)c3ccco3)CC2)n1", "A": -13.22, "B": 7.246}
{"smiles": "Cc1nc(-c2ccoc2)n(CC(=O)N(C)CC(C)C)c1C", "A": -11.36, "B": 15.84}
{"smiles": "CN(c1ccc(C(=O)NCCCN2CCOCC2)c(Cl)c1)S(C)(=O)=O", "A": -5.762, "B": 8.491}
{"smiles": "COCCC(=O)NC[C@H]1CC[C@H](C(c2ccccn2)N(C)C)CC1", "stereo": "some centres not stated", "A": -6.766, "B": 12.77}
{"smiles": "O=C(Cn1cccc2oc(=O)nc1-2)NCC1Cc2ccccc2O1", "stereo": "configuration not stated", "A": -5.476, "B": 2.74}
{"smiles": "CC(C)CCNC(=O)c1sccc1N(C)S(=O)(=O)c1ccccc1", "A": 8.113, "B": 25.71}
{"smiles": "CCn1cc(CN2CCC(c3[nH]ncc3S(C)(=O)=O)C2)cn1", "stereo": "configuration not stated", "A": 9.2, "B": 21.74}
{"smiles": "CNC(=O)Cc1ccc(NC(=O)NC(C)C(C)C)cc1", "stereo": "configuration not stated", "A": -0.5038, "B": 17.14}
{"smiles": "Cn1ncc2c1C(COCC1CC1)CN(S(=O)(=O)C1CC1)C2", "stereo": "configuration not stated", "A": 0.7814, "B": 5.882}
{"smiles": "CCn1nc2nc(SCC(=O)O)cc(C(F)F)c2c1C", "A": -11.79, "B": 12.37}
{"smiles": "COc1cccc(NC(=O)N2CCC(O)(C(F)(F)F)C2)c1", "stereo": "configuration not stated", "A": -6.343, "B": 22.08}
{"smiles": "CCc1cnc(CN2CCC(O)(c3cc(OC)cc(OC)c3)CC2)o1", "A": 4.5, "B": 0}
{"smiles": "CCC(C)C(=O)NCc1ccc(-n2cncn2)nc1", "stereo": "configuration not stated", "A": -18.48, "B": 1.653}
{"smiles": "Cc1n[nH]c2c1C(c1ccc3c(c1)OCO3)SCC(=O)N2", "stereo": "configuration not stated", "A": 6.403, "B": -2.759}
{"smiles": "Cc1cccc(CN2CCC3(CCCN(C(=O)NC4CC4)C3)C2=O)n1", "stereo": "configuration not stated", "A": 2.72, "B": 0.9709}

For reference, 3 entries once more:

- Cc1ncc(CNc2ccc(C(=O)NCc3ccco3)cc2C)s1 : A: -10.66%; B: 4.762%
- CCC(C)C(=O)NCc1ccc(-n2cncn2)nc1 (configuration not stated) : A: -18.48%; B: 1.653%
- CC(C)CCNC(=O)c1sccc1N(C)S(=O)(=O)c1ccccc1 : A: 8.113%; B: 25.71%

From ChEMBL document CHEMBL3988442, “University of Dundee, Small-Polar-MMV Screening Library” (2021).